Source: paper PMC12383022, “Discovery of a Novel Antimicrobial Peptide from Paenibacillus sp. Na14 with Potent Activity Against Gram-Negative Bacteria and Genomic Insights into Its Biosynthetic Pathway” (Antibiotics, 2025)
In brackets after ≈: the same amount, converted by molar mass.

Tested on: S. aureus TISTR 517
Assay: microbe, parasite or virus in culture
Format: cell-based
Conditions: Staphylococcus aureus, TISTR517, 24 h, read-out: MIC, S. aureus TISTR 517
Experimental: A bacterial suspension was prepared by adjusting its turbidity at OD 625 nm to 0.1 and subsequently made a 20-fold dilution using Cation-Adjusted Mueller–Hinton broth (CAHMB) as a diluent. […] The diluted cell suspension (10 µL) was added to each well, and the plates were incubated at 37 °C for 24 h. The CAMHB alone was used as a negative control, while CAMHB containing colistin or vancomycin served as a positive control.

SMILES: CN[C@H](CC(C)C)C(=O)N[C@H]1C(=O)N[C@@H](CC(N)=O)C(=O)N[C@H]2C(=O)N[C@H]3C(=O)N[C@H](C(=O)N[C@H](C(=O)O)c4cc(O)cc(O)c4-c4cc3ccc4O)[C@H](O)c3ccc(c(Cl)c3)Oc3cc2cc(c3O[C@@H]2O[C@H](CO)[C@@H](O)[C@H](O)[C@H]2O[C@H]2C[C@](C)(N)[C@H](O)[C@H](C)O2)Oc2ccc(cc2Cl)[C@H]1O [Vancomycin]
- MIC: 2 µg/mL (≈ 1.38 µM)
